Experimental data: PubChem BioAssay AID1259259 (Sanger Institute, 2017)

- Assay: 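Kinome siRNA search for kinases essential alone or combined with trametinib, cetuximab or BYL719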 (primary screen)
- System: SW1463 human colorectal cancer cells
- Reagents: siRNA pool against human genes
- Treatment: DMSO vehicle, or one anchor drug: BYL719 at 1 µM, cetuximab at 5 µg/ml, or trametinib at 10 nM
- Read-out: 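Viability as fraction of control pool 2 (non-targeting), replicate mean; knock-down robust z-score without any drug; synergy score averaged for each anchor drug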
- Reading the numbers: robust z-score, knock-down alone: higher = more viable cells after knock-down
- Hit rule: 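a robust z-score under -3 for knock-down with no drug marks the gene as essential, meaning viability loss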
- Calls: active = essential: viability loss from knock-down alone; inactive = no change from knock-down alone
Shown is a random part of 794 reagents. 9 of all reagents (1.1%) count as active. 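Calls rest on knock-down alone, not drug synergy; viability values seem capped at 1.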 A number with no mark means an inactive call. Not all columns of the deposit are shown. Not given: the amount of reagent, the time to read-out.

Depletion of LIMK1 gave: robust z-score, knock-down alone -0.585.
AGK scored robust z-score, knock-down alone 0.284.
For DGKK, the values are robust z-score, knock-down alone 0.862.
Depletion of MAST4 resulted in: robust z-score, knock-down alone 0.577.
After knock-down of FGFR3 the results were robust z-score, knock-down alone -1.44.
PTK2B scored robust z-score, knock-down alone -0.0569.
For MYLK4, the values are robust z-score, knock-down alone 1.13.
Knock-down of MARK3 gave: robust z-score, knock-down alone -0.428.

Reformatted: results already given.
AGK
- robust z-score, knock-down alone: 0.284

DGKK
- robust z-score, knock-down alone: 0.862

MAST4
- robust z-score, knock-down alone: 0.577

Continued.
Against FCSK, the entry reads robust z-score, knock-down alone 1.13.
POMK gave robust z-score, knock-down alone 0.888.
After knock-down of AK1 the results were robust z-score, knock-down alone 1.13.
Against TCF7L2 the deposit lists robust z-score, knock-down alone 0.639.
Knock-down of CREBBP came out at: robust z-score, knock-down alone -0.682.
Silencing of RYK gave: robust z-score, knock-down alone 1.08.
For MAPK12, the values are robust z-score, knock-down alone 1.13.
Against PCBP1, the entry reads robust z-score, knock-down alone -0.241.
With knock-down of NPR2, the screen gave robust z-score, knock-down alone 0.655.
Depletion of DLG2 came out at: robust z-score, knock-down alone 1.13.
With knock-down of STYK1, the record shows robust z-score, knock-down alone -0.733.
